Results taken from paper PMC11671593.
No constants are given. Whether binding was seen depends on the method and setting. Binding seen in cells or lysates may run through a third protein. These calls come from enrichment with a bait or labelling near it, and not all partners need be listed.

Protein sequences, listed by entry. Tags and fused reporters are not part of them.
UniProt Q06330: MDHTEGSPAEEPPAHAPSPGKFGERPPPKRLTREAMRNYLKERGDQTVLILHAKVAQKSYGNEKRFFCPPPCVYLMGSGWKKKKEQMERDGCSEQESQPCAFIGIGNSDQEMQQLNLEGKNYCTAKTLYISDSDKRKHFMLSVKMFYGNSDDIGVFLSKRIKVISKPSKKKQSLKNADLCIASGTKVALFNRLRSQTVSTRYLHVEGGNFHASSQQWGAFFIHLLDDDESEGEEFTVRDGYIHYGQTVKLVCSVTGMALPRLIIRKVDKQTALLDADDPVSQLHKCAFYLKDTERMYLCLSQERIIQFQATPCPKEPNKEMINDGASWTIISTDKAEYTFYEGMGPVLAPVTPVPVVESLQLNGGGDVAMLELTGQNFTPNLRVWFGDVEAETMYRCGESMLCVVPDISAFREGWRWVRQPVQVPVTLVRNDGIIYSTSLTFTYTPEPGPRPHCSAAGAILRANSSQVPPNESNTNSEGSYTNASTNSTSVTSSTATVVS

Target: T1, Tripartite motif containing 59 (TRIM59), in PC cells (human (in human PC cell lines)) (UniProt Q8IWR1)
T1 sequence: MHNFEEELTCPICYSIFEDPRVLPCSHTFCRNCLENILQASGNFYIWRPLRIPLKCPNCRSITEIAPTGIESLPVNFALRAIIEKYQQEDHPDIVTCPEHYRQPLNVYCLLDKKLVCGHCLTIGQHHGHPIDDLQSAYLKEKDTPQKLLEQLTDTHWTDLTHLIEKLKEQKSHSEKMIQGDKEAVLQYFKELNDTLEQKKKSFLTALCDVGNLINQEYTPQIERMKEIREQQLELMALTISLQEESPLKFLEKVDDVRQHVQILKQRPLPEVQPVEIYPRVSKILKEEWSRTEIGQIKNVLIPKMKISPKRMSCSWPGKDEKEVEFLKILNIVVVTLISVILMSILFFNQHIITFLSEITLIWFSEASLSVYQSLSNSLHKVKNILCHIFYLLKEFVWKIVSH
Assay: affinity purification with mass spectrometry; Co-IP (primary antibody, protein A + G sepharose beads), SDS-PAGE, silver staining and MS; cells not named

“Recombination signal binding protein for immunoglobulin kappa J region (RBPJ), in PC cells (from UniProt Q06330 1-500)” was tested, and the binding was “binds”.
